# Assay results published in the supplement of paper PMC4683952.
# Structures can show the parent of a compound that is named as a salt. This is one part of the list. Rule as the data show it: active = 2.5 or more and inactive = the rest. Most values lie within the scatter of the assay; repeated measurements hardly agree.
# Test system: Lgr5 (MarsCy1-Lgr5-EGFP, U2OS)
# Assay: cell-surface Lgr5 expression (SCi1 fluorescence, background-subtracted) relative to WT control (fold of WT control); higher = more Lgr5 at the plasma membrane
# Details: U2OS MarsCy1-Lgr5-EGFP stable; treatment time: overnight; library: Prestwick; 20 µM
row,SMILES,cell-surface Lgr5 expression
1,CC(=O)[C@H]1CC[C@H]2[C@@H]3C=CC4=CC(=O)CC[C@@]4(C)[C@@H]3CC[C@]12C [Dydrogesterone],active: 2.55
2,Cc1cccc(C)c1OCC(C)N (configuration not stated) [Mexiletine hydrochloride],inactive: 1.38
3,O=c1ccc2cc(O)c(O)cc2o1 [Esculetin],inactive: 1.27
4,O=C(OCC(O)CO)c1ccccc1Nc1ccnc2cc(Cl)ccc12 (configuration not stated) [Glafenine hydrochloride],inactive: 1.94
5,CC(C(=O)O)c1ccc(-c2ccccc2)c(F)c1 (configuration not stated) [Flurbiprofen],inactive: 1.7
6,C[C@H]1O[C@@H](O[C@H]2[C@@H](O)C[C@H](O[C@H]3[C@@H](O)C[C@H](O[C@H]4CC[C@@]5(C)[C@H](CC[C@@H]6[C@@H]5C[C@@H](O)[C@]5(C)[C@@H](C7=CC(=O)OC7)CC[C@]65O)C4)O[C@@H]3C)O[C@@H]2C)C[C@H](O)[C@@H]1O [Digoxin],inactive: 1
7,COc1cc([S+](C)[O-])ccc1-c1nc2cccnc2[nH]1 (configuration not stated) [Sulmazole],inactive: 1.92
8,CCCCc1cc2ccccc2c(OCCN(C)C)n1 [Dimethisoquin hydrochloride],inactive: 1.13
9,Cc1cccc(C)c1NC(=O)C(C)N (configuration not stated) [Tocainide hydrochloride],inactive: 1.27
10,CN(C)C(=O)C(CCN1CCC(O)(c2ccc(Cl)cc2)CC1)(c1ccccc1)c1ccccc1 [Loperamide hydrochloride],inactive: 0.948
11,CN[C@@H]1[C@@H](O[C@H]2O[C@H](CO)[C@@H](N)[C@H](O)[C@H]2O)OC2C[C@@H](N)[C@@H](O[C@H]3[C@H](O)[C@@H](O)[C@H](N)C[C@@H]3N)OC2[C@@H]1O (some centres not stated) [Apramycin],inactive: 1.23
12,Cc1c(-c2ccccc2)oc2c(C(=O)OCCN3CCCCC3)cccc2c1=O [Flavoxate hydrochloride],inactive: 1.31
13,NS(=O)(=O)c1cc2c(cc1Cl)NC(C(Cl)Cl)NS2(=O)=O (configuration not stated) [Trichlormethiazide],inactive: 1.89
14,CN[C@@H]1[C@H](O)[C@H](NC)[C@H]2O[C@@]3(O)C(=O)C[C@@H](C)O[C@H]3O[C@@H]2[C@H]1O [Spectinomycin dihydrochloride],inactive: 2.15
15,Cc1onc(-c2ccccc2Cl)c1C(=O)N[C@@H]1C(=O)N2[C@@H]1SC(C)(C)[C@@H]2C(=O)O [Cloxacillin sodium salt],inactive: 1.46
16,N[C@@H](C(=O)N[C@@H]1C(=O)N2C(C(=O)O)=C(Cl)CC[C@H]12)c1ccccc1 [Loracarbef],inactive: 1.41
17,CN(C)CCC=C1c2ccccc2COc2ccccc21 [Doxepin hydrochloride],inactive: 1.17
18,CC(C)[N+](C)(CCOC(=O)C1c2ccccc2Oc2ccccc21)C(C)C [Propantheline bromide],inactive: 0.324
19,Nc1ccccc1S(N)(=O)=O [2-Aminobenzenesulfonamide],inactive: 2.32
20,CCN(CC)CCNC(=O)c1cc(Cl)c(N)cc1OC [Metoclopramide monohydrochloride],inactive: 1.51
21,CCOc1ccc2ccccc2c1C(=O)N[C@@H]1C(=O)N2[C@@H]1SC(C)(C)[C@@H]2C(=O)O [Nafcillin sodium salt monohydrate],inactive: 2.24
22,CN(C)C/C=C(/c1ccc(Br)cc1)c1cccnc1 [Zimelidine dihydrochloride monohydrate],inactive: 1.45
23,CC(C)(CO)C(O)C(=O)NCCCO (configuration not stated) [Panthenol (D)],inactive: 1.25

row,SMILES,cell-surface Lgr5 expression
1,Cn1cnc2c1c(=O)[nH]c(=O)n2C [Theobromine],inactive: 1.88
2,CCC[C@@H]1C[C@@H](C(=O)N[C@@H]([C@H]2O[C@H](SC)[C@H](O)[C@@H](O)[C@H]2O)[C@H](C)Cl)N(C)C1 [Clindamycin hydrochloride],inactive: 1.13
3,O=C(N[C@H](CO)[C@H](O)c1ccc([N+](=O)[O-])cc1)C(Cl)Cl [Chloramphenicol],inactive: 1.68
4,Cc1ccc2c(c1)c1c3n2CCNC3CCC1 (configuration not stated) [Pirlindole mesylate],inactive: 1.72
5,COc1cc(C(=O)NCc2ccc(OCCN(C)C)cc2)cc(OC)c1OC [Trimethobenzamide hydrochloride],inactive: 1.42
6,C1CCC(C(CC2CCCCN2)C2CCCCC2)CC1 (configuration not stated) [Perhexiline maleate],inactive: 1.78
7,CC(C)NCC(O)COc1ccc(CCOCC2CC2)cc1 (configuration not stated) [Betaxolol hydrochloride],inactive: 0.926
8,CCc1nc(N)nc(N)c1-c1ccc(Cl)cc1 [Pyrimethamine],inactive: 0.955
9,CC(=O)[C@@]1(O)CC[C@H]2[C@@H]3C[C@H](C)C4=CC(=O)C=C[C@]4(C)[C@@]3(F)[C@@H](O)C[C@@]21C [Fluorometholone],active: 3.04
10,O=C(O)c1cn(C2CC2)c2cc(N3CCNCC3)c(F)cc2c1=O [Ciprofloxacin hydrochloride],inactive: 1.43
11,C1COC(NC(C2CC2)C2CC2)=N1 [Rilmenidine hemifumarate],inactive: 1.05
12,C[C@H]1c2cccc(O)c2C(=O)C2=C(O)[C@]3(O)C(=O)C(C(N)=O)=C(O)[C@@H](N(C)C)[C@@H]3[C@@H](O)[C@@H]21 [Doxycycline hydrochloride],inactive: 0.993
13,CCCC1C(=O)N2C(N(C)C)=Nc3ccc(C)cc3N2C1=O (configuration not stated) [Azapropazone],inactive: 1.07
14,"C[C@](N)(Cc1ccc(O)c(O)c1)C(=O)O [Methyldopa (L,-)]",inactive: 1.42
15,c1cnc(N2CCN(Cc3ccc4c(c3)OCO4)CC2)nc1 [Piribedil hydrochloride],inactive: 0.68
16,CCc1c(C)[nH]c2c1C(=O)C(CN1CCOCC1)CC2 (configuration not stated) [Molindone hydrochloride],inactive: 1.43
17,CCC1(c2ccccc2)NC(=O)N(C)C1=O (configuration not stated) [Mephenytoin],inactive: 1.27
18,Cc1ncc(CO)c(CO)c1O [Pyridoxine hydrochloride],inactive: 2.02
19,N=C(N)NS(=O)(=O)c1ccc(N)cc1 [Sulfaguanidine],inactive: 1.54
20,CC1=C(/C=C/C(C)=C/C=C/C(C)=C/C(=O)O)C(C)(C)CCC1 [Retinoic acid],inactive: 1.43
21,NC(=O)c1cc[n+](CC2=C(C(=O)[O-])N3C(=O)[C@@H](NC(=O)[C@@H](c4ccccc4)S(=O)(=O)O)[C@H]3SC2)cc1 [Cefsulodin sodium salt],inactive: 2.06
22,Clc1ccc(Cn2c(CN3CCCC3)nc3ccccc32)cc1 [Clemizole hydrochloride],inactive: 1.19
23,COc1cc2nc(N(C)CCCNC(=O)C3CCCO3)nc(N)c2cc1OC (configuration not stated) [Alfuzosin hydrochloride],inactive: 1.72

row,SMILES,cell-surface Lgr5 expression
1,O=C(O)/C=C/c1ccc(O)c(O)c1 [Caffeic acid],inactive: 2.34
2,CC(=O)O[C@]1(C(C)=O)CC[C@H]2[C@@H]3C=C(Cl)C4=CC(=O)[C@@H]5C[C@@H]5[C@]4(C)[C@H]3CC[C@@]21C [Cyproterone acetate],inactive: 0.948
3,O=C(O)COCCN1CCN(C(c2ccccc2)c2ccc(Cl)cc2)CC1 (configuration not stated) [Cetirizine dihydrochloride],active: 3.85
4,N[C@@H]1CONC1=O [D-cycloserine],inactive: 1.43
5,CN1C(=O)CC(c2ccccc2)C1=O (configuration not stated) [Phensuximide],inactive: 1.25
6,Clc1ccc(CSC(Cn2ccnc2)c2ccc(Cl)cc2Cl)cc1 (configuration not stated) [Sulconazole nitrate],inactive: 1.62
7,C[n+]1cc2c3c(ccc2c2ccc4cc5c(cc4c21)OCO5)OCO3 [Sanguinarine],inactive: 0.361
8,N=C(N)NC(=O)Cc1c(Cl)cccc1Cl [Guanfacine hydrochloride],inactive: 1.55
9,CN(C)CCOC(c1ccccc1)c1ccccc1 [Diphenhydramine hydrochloride],inactive: 1.63
10,CC(=O)[C@H]1CC[C@H]2[C@@H]3CCC4=CC(=O)CC[C@]4(C)[C@H]3CC[C@]12C [Progesterone],inactive: 0.963
11,NC(Cc1cc(I)c(Oc2cc(I)c(O)c(I)c2)c(I)c1)C(=O)O (configuration not stated) [Thyroxine (L)],inactive: 1.32
12,CN(C)CC/C=C1/c2ccccc2Sc2ccc(Cl)cc21 [Chlorprothixene hydrochloride],inactive: 2.11
13,C[C@]12CC[C@@H]3c4ccc(O)cc4CC[C@H]3[C@@H]1CC[C@@H]2O [Estradiol-17 beta],inactive: 1.45
14,CCCN(CCC)S(=O)(=O)c1ccc(C(=O)O)cc1 [Probenecid],active: 2.99
15,COc1ccc(CCN(C)CCCC(C#N)(c2ccc(OC)c(OC)c2)C(C)C)cc1OC (configuration not stated) [Verapamyl hydrochloride],inactive: 0.822
16,CCCc1cc(=O)[nH]c(=S)[nH]1 [Propylthiouracil],inactive: 2.11
17,C[N+]1(CCCCC[N+]2(C)CCCC2)CCCC1 [Pentolinium bitartrate],active: 2.53
18,CCCCCCC[N+](CC)(CC)CCCCc1ccc(Cl)cc1 [Clofilium tosylate],inactive: 0.859
19,CNCCCC1c2ccccc2C=Cc2ccccc21 [Protriptyline hydrochloride],inactive: 1.59
20,C[C@]12CCC(=O)C=C1CC[C@@H]1[C@@H]2[C@@H](O)C[C@@]2(C)[C@H]1CC[C@]2(O)C(=O)CO [Hydrocortisone base],inactive: 1.53
21,COc1cccc2c1C(=O)c1c(O)c3c(c(O)c1C2=O)C[C@@](O)(C(=O)CO)C[C@@H]3O[C@H]1C[C@H](N)[C@H](O)[C@H](C)O1 [Doxorubicin hydrochloride],inactive: 0.101

# A second format for part of the listing above:
row	SMILES	cell-surface Lgr5 expression
4	O=C(OCC(O)CO)c1ccccc1Nc1ccnc2cc(Cl)ccc12 (configuration not stated) [Glafenine hydrochloride]	inactive: 1.94
20	CCN(CC)CCNC(=O)c1cc(Cl)c(N)cc1OC [Metoclopramide monohydrochloride]	inactive: 1.51
10	O=C(O)c1cn(C2CC2)c2cc(N3CCNCC3)c(F)cc2c1=O [Ciprofloxacin hydrochloride]	inactive: 1.43
